# Data source: PubChem BioAssay AID1224826 (NIAID, 2016)
# Test: 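Knock-downs that raise or lower Tnf reporter signal after endotoxin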 (primary screen)
# System: RAW264.7 G9 macrophages from mouse bearing reporters for p65 (GFP) and the Tnf promoter (mCherry)
# Reagent: siRNA pool against mouse genes, 100 nM
# Time to read-out: 16 h of LPS stimulation, after 2 days of siRNA transfection
# Challenge: bacterial lipopolysaccharide (Salmonella minnesota R595), 10 ng/ml
# Read-out: 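Nuclear mCherry signal of the Tnf promoter reporter measured by imaging after background removal, scaled to each plate median and turned into robust z-scores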
# Scale: Tnf reporter robust z-score: higher = stronger Tnf promoter reporter signal after LPS; Tnf reporter intensity: higher = stronger Tnf promoter reporter signal
# Rule for the call: 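Called active when robust z-score is at most -1.3, matching the median of the Tlr4 knock-down control, or over 3; control wells and wells with under 50 cells never active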
# Meaning of the calls: active = Tnf reporter clearly lowered or raised; inactive = no clear change in Tnf reporter
# Here is an unselected part of about 17,000 reagents tested. Over the whole deposit, about 1,110 (6.6%) got an active call. 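Active means lowered or raised reporter signal; replicate intensities are raw and not normalised per plate.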 A number with no mark means an inactive call. Reagents against one gene are numbered here.
gene symbol,pool no.,Tnf reporter robust z-score,fewer than 50 cells in well,"Tnf reporter intensity, replicate 1","Tnf reporter intensity, replicate 2"
9930022D16Rik (RIKEN cDNA 9930022D16 gene),1,0.61,enough cells in well,226,218
Adam15 (ADAM metallopeptidase domain 15),1,-1,enough cells in well,109,115
Mrps22 (mitochondrial ribosomal protein S22),1,-1.69 (active),enough cells in well,98.6,53.7
"Gtf2a2 (general transcription factor II A, 2)",1,-0.98,enough cells in well,179,99.8
Poglut2 (protein O-glucosyltransferase 2),1,1.01,enough cells in well,267,170
Zfp93 (zinc finger protein 93),1,-0.79,enough cells in well,118,61.3
Ebna1bp2 (EBNA1 binding protein 2),1,-0.55,enough cells in well,155,82.8
Krtcap2 (keratinocyte associated protein 2),1,0.42,enough cells in well,126,214
Gm2716 (predicted gene 2716),1,-0.13,enough cells in well,188,122
Ywhag,1,-0.3,enough cells in well,197,219
Ints7 (integrator complex subunit 7),1,0.95,enough cells in well,215,201
Hes1 (hes family bHLH transcription factor 1),1,-0.57,enough cells in well,199,146
Hars2 (histidyl-tRNA synthetase 2),1,-0.12,enough cells in well,254,145
Stard5 (StAR related lipid transfer domain containing 5),1,2.87,enough cells in well,209,87.7
Rad54l (RAD54 like (S. cerevisiae)),1,0.02,enough cells in well,301,213
Gatad2b (GATA zinc finger domain containing 2B),1,0.17,enough cells in well,149,177
"Atp6v1e1 (ATPase, H+ transporting, lysosomal V1 subunit E1)",1,-0.14,enough cells in well,172,148
Pcbp2 (poly(rC) binding protein 2),1,-0.7,enough cells in well,161,156
"Cyp2d9 (cytochrome P450, family 2, subfamily d, polypeptide 9)",1,,fewer than 50 cells per well; well left out of calls,142,138
Pank2 (pantothenate kinase 2),1,-0.27,enough cells in well,207,175
Or10g7 (olfactory receptor family 10 subfamily G member 7),1,,fewer than 50 cells per well; well left out of calls,63.1,88.4
"Gria2 (glutamate receptor, ionotropic, AMPA2 (alpha 2))",1,-0.47,enough cells in well,212,201
"Gng2 (guanine nucleotide binding protein (G protein), gamma 2)",1,0.59,enough cells in well,323,178
"Yipf1 (Yip1 domain family, member 1)",1,0.2,enough cells in well,118,177
Bdnf (brain derived neurotrophic factor),1,0.6,enough cells in well,174,195
Pdzd11 (PDZ domain containing 11),1,0.05,enough cells in well,268,67.3
B4galt3,1,-0.17,enough cells in well,196,193
Pars2 (prolyl-tRNA synthetase (mitochondrial)(putative)),1,-2.03 (active),enough cells in well,58.8,72.1
"Il12rb1 (interleukin 12 receptor, beta 1)",1,0.29,enough cells in well,261,207
"Ppp3cb (protein phosphatase 3, catalytic subunit, beta isoform)",1,0.15,enough cells in well,256,204
Tmem125 (transmembrane protein 125),1,,fewer than 50 cells per well; well left out of calls,110,73.9
Clip1 (CAP-GLY domain containing linker protein 1),1,0.06,enough cells in well,324,204
Arxes1 (adipocyte-related X-chromosome expressed sequence 1),1,2.56,enough cells in well,371,315
Aire (autoimmune regulator),1,0.21,enough cells in well,195,164
Gabra5 (gamma-aminobutyric acid type A receptor subunit alpha 5),1,-0.82,enough cells in well,174,181
Fbxw15 (F-box and WD-40 domain protein 15),1,-0.13,enough cells in well,182,140
Camk2a (calcium/calmodulin-dependent protein kinase II alpha),1,-1.12,enough cells in well,113,106
Pcdhb1 (protocadherin beta 1),1,-0.96,enough cells in well,182,108
Zfp788 (zinc finger protein 788),1,,fewer than 50 cells per well; well left out of calls,157,40.3
Msl3l2 (MSL3 like 2),1,1.13,enough cells in well,293,61.2
Slc67a1,1,2.44,enough cells in well,370,279
Sh3gl3 (SH3-domain GRB2-like 3),1,-0.44,enough cells in well,225,194
Mutyh (mutY DNA glycosylase),1,0.54,enough cells in well,341,218
"Dnal4 (dynein, axonemal, light chain 4)",1,-0.24,enough cells in well,164,111
"Tnfrsf10b (tumor necrosis factor receptor superfamily, member 10b)",1,1.2,enough cells in well,244,196
"Cope (coatomer protein complex, subunit epsilon)",1,-0.03,enough cells in well,189,168
Igtp (interferon gamma induced GTPase),1,-0.21,enough cells in well,189,115
Pick1 (protein interacting with C kinase 1),1,0.06,enough cells in well,191,172
Alg5 (ALG5 dolichyl-phosphate beta-glucosyltransferase),1,0.37,enough cells in well,184,257
Or2y1g (olfactory receptor family 2 subfamily Y member 1G),1,-1.48 (active),enough cells in well,90.6,60.1
"Cyp8b1 (cytochrome P450, family 8, subfamily b, polypeptide 1)",1,-1.81 (active),enough cells in well,76.5,64.1
Cybc1 (cytochrome b 245 chaperone 1),1,0.21,enough cells in well,203,241
Btg2 (BTG anti-proliferation factor 2),1,0.33,enough cells in well,155,188
Afg2a (AFG2 AAA ATPase homolog A),1,1.08,enough cells in well,149,125
Or10al7 (olfactory receptor family 10 subfamily AL member 7),1,-0.33,enough cells in well,164,89.5
Cmtm6 (CKLF-like MARVEL transmembrane domain containing 6),1,-0.62,enough cells in well,126,146
"Acad12 (acyl-Coenzyme A dehydrogenase family, member 12)",1,-0.75,enough cells in well,152,123
Kcne2,1,-0.03,enough cells in well,198,12.6
Barx2 (BarH-like homeobox 2),1,-0.72,enough cells in well,100,137
Rnase2a,1,,fewer than 50 cells per well; well left out of calls,84,35.1
Eif4h (eukaryotic translation initiation factor 4H),1,0.67,enough cells in well,339,264
Tssk3 (testis-specific serine kinase 3),1,0.25,enough cells in well,126,91.5
Tssk3 (testis-specific serine kinase 3),2,0.35,enough cells in well,198,147
Il34 (interleukin 34),1,-0.86,enough cells in well,116,41.7
Nmnat3 (nicotinamide nucleotide adenylyltransferase 3),1,,fewer than 50 cells per well; well left out of calls,249,61.5
Serpina1b,1,-1.2,enough cells in well,163,131
Ncf4 (neutrophil cytosolic factor 4),1,-0.48,enough cells in well,135,119
Nxf7 (nuclear RNA export factor 7),1,-1.12,enough cells in well,116,94.2
H3c7 (H3 clustered histone 7),1,3.18 (active),enough cells in well,406,187
"Fabp9 (fatty acid binding protein 9, testis)",1,0.46,enough cells in well,208,210
"Akr1c20 (aldo-keto reductase family 1, member C20)",1,0.77,enough cells in well,273,222
Them5 (thioesterase superfamily member 5),1,,fewer than 50 cells per well; well left out of calls,156,49.9
Ppp4r3a (protein phosphatase 4 regulatory subunit 3A),1,0.36,enough cells in well,315,28.4
Ctdsp2 (CTD small phosphatase 2),1,-0.29,enough cells in well,183,143
F2rl1 (F2R like trypsin receptor 1),1,-0.82,enough cells in well,144,234

Hits, among the entries above:
gene symbol,pool no.,Tnf reporter robust z-score,fewer than 50 cells in well,"Tnf reporter intensity, replicate 1","Tnf reporter intensity, replicate 2"
Mrps22 (mitochondrial ribosomal protein S22),1,-1.69 (active),enough cells in well,98.6,53.7
Pars2 (prolyl-tRNA synthetase (mitochondrial)(putative)),1,-2.03 (active),enough cells in well,58.8,72.1
Or2y1g (olfactory receptor family 2 subfamily Y member 1G),1,-1.48 (active),enough cells in well,90.6,60.1
"Cyp8b1 (cytochrome P450, family 8, subfamily b, polypeptide 1)",1,-1.81 (active),enough cells in well,76.5,64.1
H3c7 (H3 clustered histone 7),1,3.18 (active),enough cells in well,406,187
